In patent publication US6991916B2 (Pfizer Inc., priority 2000, dated 2006):

Assay: general procedure: Fmoc solid-phase peptide synthesis; FMOC-PAL-PEG-PS resin; HBTU

Substance	conjugation yield (conjugation step) [%]	crude mass (whole synthesis) [mg]	crude yield (whole synthesis, scale of the general procedure 0.25 mmol) [%]
5-carboxyfluorescein-Gly-Gly-dPhe-Leu-Arg-Arg-Val-Cys(5-(and 6)tetramethylrhodamine)-βAla-NH2	8		
5-carboxyfluorescein-Gly-Gly-dPhe-Leu-Arg-Arg-Val-Cys(H)-βAla-NH2		50	54
